Assay results taken from patent US4992417A (Mount Sinai School of Medicine, priority 1988, dated 1991).

Experiment: peptide synthesis
Conditions: coupling step

Row | Substance | step yield
1 | Boc.Ser(Bzl)-Asp(cHex)-Leu-Val-Glu (cHex)-Ala.OH | 90%
2 | Boc.Asp(cHex)-Leu-Val-Glu(cHex)-Ala.OBu^t | 85%
3 | Z.Leu-Val-Glu (cHex)-Ala.OBu^t | 88%
4 | Boc.Ser(Bzl)-Asp(cHex)-Leu-Val-Glu(cHex)-Ala-Leu-Tyr(Bzl)-Leu-Val-Cys(Dpm)- Gly-Glu(Bzl)-Arg(NO2)-Gly-Phe-Phe-Tyr(Bzl)-Thr-Pro-Lys(Z)-Thr(Bzl).OBzl | 88%
